Laboratory results taken from publication PMC5312596, “A novel Pfs38 protein complex on the surface of Plasmodium falciparum blood-stage merozoites” (Malaria Journal, 2017).

Amino acid sequences for entries named in this document (tags omitted). Residues count along the entry.
UniProt Q9TY95, residues 23-997: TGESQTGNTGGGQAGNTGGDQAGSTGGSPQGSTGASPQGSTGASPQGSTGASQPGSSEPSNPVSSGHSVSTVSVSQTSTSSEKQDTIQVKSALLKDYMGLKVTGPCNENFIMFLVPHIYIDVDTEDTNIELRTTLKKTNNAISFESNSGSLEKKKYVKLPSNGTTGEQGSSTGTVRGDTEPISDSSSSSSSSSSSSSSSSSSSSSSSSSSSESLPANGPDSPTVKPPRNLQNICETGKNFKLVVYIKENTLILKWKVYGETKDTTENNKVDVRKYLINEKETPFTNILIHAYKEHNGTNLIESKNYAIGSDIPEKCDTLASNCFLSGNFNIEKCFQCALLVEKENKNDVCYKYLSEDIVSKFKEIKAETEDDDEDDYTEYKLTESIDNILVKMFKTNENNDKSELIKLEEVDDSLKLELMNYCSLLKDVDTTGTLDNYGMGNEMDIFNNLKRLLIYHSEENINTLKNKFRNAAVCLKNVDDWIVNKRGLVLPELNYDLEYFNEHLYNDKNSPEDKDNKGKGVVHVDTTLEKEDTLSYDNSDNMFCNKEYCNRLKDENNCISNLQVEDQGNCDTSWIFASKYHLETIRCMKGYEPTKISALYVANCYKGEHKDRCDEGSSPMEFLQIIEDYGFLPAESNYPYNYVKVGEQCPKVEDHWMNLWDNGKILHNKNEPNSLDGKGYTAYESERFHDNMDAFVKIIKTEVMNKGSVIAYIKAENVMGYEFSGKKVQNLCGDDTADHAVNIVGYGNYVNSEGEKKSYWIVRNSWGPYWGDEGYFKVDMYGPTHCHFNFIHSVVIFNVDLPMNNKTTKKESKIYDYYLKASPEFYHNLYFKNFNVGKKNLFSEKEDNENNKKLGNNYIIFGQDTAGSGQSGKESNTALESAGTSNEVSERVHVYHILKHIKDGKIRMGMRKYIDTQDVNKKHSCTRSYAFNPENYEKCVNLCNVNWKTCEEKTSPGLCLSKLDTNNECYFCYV

Biological target: T1, native Pfs38 (Plasmodium falciparum 3D7 (endogenous in cultured parasites)) (UniProt Q8I423)
T1 sequence: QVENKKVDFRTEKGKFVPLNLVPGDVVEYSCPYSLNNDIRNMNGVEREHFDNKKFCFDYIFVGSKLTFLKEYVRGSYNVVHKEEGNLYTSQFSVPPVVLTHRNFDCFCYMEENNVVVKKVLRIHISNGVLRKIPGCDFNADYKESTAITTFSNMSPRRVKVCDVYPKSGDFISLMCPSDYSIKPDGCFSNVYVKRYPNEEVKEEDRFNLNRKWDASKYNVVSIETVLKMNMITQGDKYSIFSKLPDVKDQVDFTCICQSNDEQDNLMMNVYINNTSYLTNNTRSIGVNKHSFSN
Experiment: affinity purification with mass spectrometry; late schizont (44-46 hpi) lysate in IP lysis buffer (1% NP-40, 150 mM NaCl, pH 7.4); polyclonal anti-Pfs38, anti-PfMSP-1_(65), anti-Pfs12 or anti-Pfs41 antibody on Protein-A Agarose, 12 h at 4 °C; eluate digested with trypsin, LC-MS/MS; pre-immune antibody as control

native Serine repeat antigen 5 (SERA-5) (from UniProt Q9TY95 23-997)
binding: binds

Results are given in words; binding and its absence hold for the method and conditions named. In cells and extracts the contact can be indirect. These calls come from enrichment with a bait or labelling near it, and not all partners need be listed.
